# Percent effect of library compounds

From ChEMBL document CHEMBL3988442, “University of Dundee, Small-Polar-MMV Screening Library” (2021).

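Growth of Mycobacterium tuberculosis over 4 days (cholesterol / DPPC medium with tyloxapol); the read-out is not stated. Compounds at 50 µM. Direction is inferred from retests: higher values go with more growth inhibition. About 69,000 compounds were tested under these conditions; 0.54% (about 370) showed 50% or more at least once.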

The filed quantity is “Percent Effect” (%).
How 0% and 100% were set is not recorded. Most values in the screen are low, and negative values occur.
Compounds were drawn at random from those tested, without regard to their results.
Two or more numbers in one place are separate tests of the same structure; such repeats can differ widely.

structure | percent effect
O=C(Nc1cccnc1)c1ccc(-n2cncn2)nn1 | 5.068
Cn1ccc2c(C(=O)N3CCCC3c3noc(C4CC4)n3)cccc21 (stereo not shown) | -13.43
COc1ccc(C(=O)Nc2c(C)nc3cccc(C)n3c2=O)cc1 | -8.014
CN(Cc1noc(C2CC2)n1)C1CCN(CCc2cnn(C)c2)C1 (stereo not shown) | -23.18
[H][C@@]12CN(c3cc(OC)ncn3)C[C@@H](C(=O)N3CCCC3)[C@]1([H])CCO2 | 11.65
Cc1noc(C)c1-c1ccnc(C2CCN(C3CCOCC3)CC2)c1 | -25.39
CC(C)c1cc(NC(=O)CNC2CCCN(c3cccnn3)C2)on1 (stereo not shown) | -1.546
O=C(c1ccc(Cl)cc1)N1CCc2nc(C(=O)N3CCCC3)sc2CC1 | -7.928
Cn1cnnc1SC1CCc2ccccc2NC1=O (stereo not shown) | -21.71
Cc1cn[nH]c1C1COCCN1C(=O)c1ccc2[nH]nnc2c1 (stereo not shown) | -11.74 and -8.743
c1cnn(-c2ccc(CCNC3CCN(C4CC4)C3)cc2)c1 (stereo not shown) | -4.413
CNC(=O)c1nc(CN2CCOC(C(F)(F)F)C2)no1 (stereo not shown) | -66.74
O=C(CN1CCCC1Cn1cncn1)NC(C1CC1)C1CC1 (stereo not shown) | -12.81
CCn1cc(CN2CCN(C(=O)c3cc(C)c(C)s3)CC2)c(C)n1 | 0.6882
O=C(O)CC(O)(CC(=O)O)C(=O)O.c1ccc([C@@H]2CN(Cc3cccnc3)C[C@H]2c2cc[nH]n2)cc1 | 19.6 and 6.407
Cc1cnc(N2CCCC3(COCCN(c4ccc(C)nn4)C3)C2)nc1 (stereo not shown) | 15.8
CC(C)Cc1noc(CN2CCCC(Cn3cncn3)C2)n1 (stereo not shown) | 10.27
CC(C)n1c(=O)nc2n1C(=O)N(c1ccccc1)C2 | 6.637
Cc1cccc(CN2CCC(NS(C)(=O)=O)CC2)n1 | -0.5146
O=C(CCN1CCOC(CNc2cccnn2)C1)NC1CCCCC1 (stereo not shown) | -22.77
[H][C@]12CC[C@]([H])(CN(C)C1)N(C(=O)c1ccc(OC)c(Cl)c1)C2 | -46.56
Cc1cnn(CCNCc2nnc(C3CC3)o2)c1 | -26.28
CC(C(=O)NCc1ccnc(N2CCCC2)c1)n1cncn1 (stereo not shown) | -22.54
Cc1nc(C(C)C)sc1C(C)N(C)C(=O)c1ccc(=O)n(C)n1 (stereo not shown) | 10.68
Cc1noc(C(C)N2CCN(Cc3noc(C4CC4)n3)CC2)n1 (stereo not shown) | 1.637
COc1ccc2c(O)c(NC(=O)NCC3CC3)cnc2c1 | -6.876
CCOCC1CN(Cc2cnn(C)c2)Cc2nn(CC3CC3)cc21.O=C(O)C(F)(F)F (stereo not shown) | 4.582
CCOc1ccccc1N1CCN(c2nnc(C)o2)CC1 | -12.97 and -3.27
Cc1nccn1CCCC(=O)N1CCC2(CCC(=O)N(C(C)C)C2)CC1 | -15.28 and -1.016
Fc1ccc(N2CCC3(CC2)CC(OCc2cccnc2)CO3)cc1.O=C(O)C(F)(F)F (stereo not shown) | 24.48
CCn1c(Cn2cncn2)nnc1C1CCN(Cc2ccc(C)o2)CC1 | -8.379
CC1CCN(Cc2c(C(C)C)[nH]c3ncccc23)CC1 | -23.84
CC(C)c1cc2c(s1)NC(c1ccccn1)NC2=O (stereo not shown) | 6.685
O=C(c1cnccn1)N1CCC2(CC1)C(=O)NCC2c1ccccc1 (stereo not shown) | 12.46
COCCNc1ccccc1CNC(=O)C1CCCOC1 (stereo not shown) | 5.63
O=C(NCC1(N2CCOCC2)CCSC1)Nc1ccncc1 (stereo not shown) | 2.551
COc1ccc(-n2ccc(C(=O)N3CCC(C(N)=O)C3)n2)cc1 (stereo not shown) | -16.13
O=C(O)C(F)(F)F.O=S(=O)(C1CC1)N1CCC[C@]2(C[C@@H](Oc3ccccn3)CO2)C1 | -2.465
[H][C@]12CCN(S(=O)(=O)c3cccc(F)c3)[C@@]1([H])CC[C@@H](COC)O2 | -19.39
O=C(c1cnc(-c2cccs2)s1)N1CCCC(n2ccnc2)C1 (stereo not shown) | 7.403
Cc1nc(C2CCCN2Cc2nnc(Cc3ccccc3)o2)no1 (stereo not shown) | -3.16
Cc1ccc(C(=O)N2CCCN(Cc3cccs3)CC2)c(=O)[nH]1 | -10.27
CC(C)CN1CC(c2nc(CCc3ccccc3)n[nH]2)CC1=O (stereo not shown) | -4.061 and -3.453
Cc1cc(C)c(-n2cc(CCO)cn2)cc1C | 0.419
Clc1ccc(C2NCCc3cc4c(cc32)OCCO4)cc1 (stereo not shown) | -12.06
Cc1cc(C)n(C2CN(c3ncnc4c3CCC4)C2)n1 | 6.804
CC(C)Cc1nc(CN2CCC3(CCCO3)CCC2=O)no1 (stereo not shown) | -1.813 and -10.64
COCCN1CCN(c2nc(O)cc(Cc3ccccc3F)n2)CC1 | 6.721
O=C(O)C(F)(F)F.[H][C@@]12CCN(S(=O)(=O)c3cccnc3)[C@]1([H])CC[C@@H](c1nc(C)no1)O2 | -5.382 and -16.77
CCN(C(=O)c1ccc2c(c1)OCO2)C1CC(=O)NC1=O (stereo not shown) | -19.98
[H][C@]12CC[C@]([H])(CN(S(=O)(=O)c3cccc(Cl)c3)C1)N(CCOC)C2=O | -20.4
CC(=O)NCCNC(=O)c1cc(Br)c2c(c1)OCCO2 | -20.33
O=S(=O)(c1c(Cl)nc2sccn12)N1CCC2(CCNCC2)C1 | -13.46
CC(C)c1nnc2n1CCN(Cc1cccc3c1OCCO3)C2 | -2.652
CCn1ccnc1C1CCN(Cc2cccc(C)n2)CC1 | 11.89
COCCN(Cc1cccc(C#N)c1)Cc1nc(C)no1 | -13.56
CCN(C(=O)CN1CCCN(c2nc(C)ns2)CC1)C1CC1 | 0.8782
Fc1cccc(-c2nnn3c2COC(CNCc2ccsc2)C3)c1.O=C(O)C(F)(F)F (stereo not shown) | 4.59
[H][C@@]12CCN(C(=O)c3ccccn3)C[C@]1([H])OCCN(c1ccsc1)C2=O | 2.754
Cc1noc(C)c1CNS(=O)(=O)N(C)Cc1ccc(Cl)cc1 | -14.52
CS(=O)(=O)N1CCN(CC2CC2)c2ncccc2C1 | -22.64
Cc1ccc(N2CCCC(NCc3cccs3)C2)nn1 (stereo not shown) | -12.89
COc1cc2c(cc1CN1CCc3sccc3C1C)OCCO2 (stereo not shown) | -0.3907
Cc1c[nH]nc1C1CCN(C(=O)Cn2cccn2)C1 (stereo not shown) | 10.57
Cc1nc2sccn2c1C(=O)N1CCc2[nH]cnc2C1 | -14.69 and -0.615
Cc1ccccc1C(=O)N1Cc2c(Cn3ccnc3)nn(C)c2C1.O=C(O)C(F)(F)F | -1.382 and -9.462
CCC(CNC(=O)c1ccccn1)N1CCc2ccccc2C1 (stereo not shown) | -6.862
Oc1nc(-c2cnccn2)nc2c1CCN(Cc1ccccn1)C2 | -24.01
CC(C)(O)CCc1cccc(C(=O)NCC2CN(S(C)(=O)=O)CCO2)c1 (stereo not shown) | -18.86
O=C(c1ccnnc1)N1CCC2(CC1)CN(c1ccccn1)CCO2 | -3.194

Some entries from above, unchanged:

Result for O=C(O)C(F)(F)F.[H][C@@]12CCN(S(=O)(=O)c3cccnc3)[C@]1([H])CC[C@@H](c1nc(C)no1)O2 was -5.382% and -16.77%.
Result for CC1CCN(Cc2c(C(C)C)[nH]c3ncccc23)CC1 was -23.84%.
Result for O=C(O)C(F)(F)F.O=S(=O)(C1CC1)N1CCC[C@]2(C[C@@H](Oc3ccccn3)CO2)C1 was -2.465%.
Result for COCCN1CCN(c2nc(O)cc(Cc3ccccc3F)n2)CC1 was 6.721%.
Result for CCOc1ccccc1N1CCN(c2nnc(C)o2)CC1 was -12.97% and -3.27%.
Result for CCC(CNC(=O)c1ccccn1)N1CCc2ccccc2C1 (stereo not shown) was -6.862%.
Result for O=C(O)CC(O)(CC(=O)O)C(=O)O.c1ccc([C@@H]2CN(Cc3cccnc3)C[C@H]2c2cc[nH]n2)cc1 was 19.6% and 6.407%.
Result for CCOCC1CN(Cc2cnn(C)c2)Cc2nn(CC3CC3)cc21.O=C(O)C(F)(F)F (stereo not shown) was 4.582%.
Result for Cc1ccccc1C(=O)N1Cc2c(Cn3ccnc3)nn(C)c2C1.O=C(O)C(F)(F)F was -1.382% and -9.462%.